Results deposited as PubChem BioAssay AID1224828 (NIAID, 2016)
Here is one part, drawn at random, of about 17,000 reagents. In the full data, 762 (4.5%) are marked active. 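Active calls include both raised and lowered p65 entry, mostly lowered; wells with fewer than 50 cells lack a z-score.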 Raw values vary from plate to plate and are shown uncorrected.

Purpose: 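Regulators linking TLR4 signalling to p65 nuclear translocation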 (primary screen)
System: mouse RAW264.7 G9 macrophage reporter cells (GFP-p65, Tnf promoter-mCherry)
Reagents: siRNA pool against mouse genes, 100 nM
Time to read-out: 2 days siRNA transfection, then 40 min LPS before fixation
Challenge: LPS (Salmonella minnesota R595) at 10 ng/ml
Measured: 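Imaged p65 nuclear translocation ratio, normalised to the plate median, converted to robust z-scores and averaged across two replicates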
Reading the numbers: p65 translocation robust z-score: higher = more nuclear NF-kappaB p65 after LPS than the plate median; nuclear/cytoplasmic p65 ratio: higher = more nuclear NF-kappaB p65
Hit rule: 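Called active when z exceeds 3.3 or falls under -1.56 (median of Tlr4 controls), giving activity score of at least 50; no calls for control wells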
Meaning of the calls: active = hit (p65 shift raised or lowered); inactive = no clear change

gene,PubChem SID,p65 translocation robust z-score,"nuclear/cytoplasmic p65 ratio, rep 1","nuclear/cytoplasmic p65 ratio, rep 2",low cell count flag,outcome
Acr (GeneID 11434),SID315465254,-0.04,1.61,1.61,enough cells to score,inactive
Prkd1 (GeneID 18760),SID315468545,-0.35,1.65,1.32,enough cells to score,inactive
Gsdmc3 (GeneID 270328),SID315480932,-0.33,1.44,1.5,enough cells to score,inactive
Grid2 (GeneID 14804),SID315467028,2.83,1.95,1.6,enough cells to score,inactive
Or4f57 (GeneID 258258),SID315479954,1.47,1.83,1.47,enough cells to score,inactive
Or52k2 (GeneID 259106),SID315480700,,1.45,1.37,fewer than 50 cells per well; well left out of scoring,inactive
2810428J06Rik (GeneID 67058),SID315472808,2.89,1.63,1.34,enough cells to score,inactive
4930579K19Rik (GeneID 75881),SID315475216,,1.13,1.34,fewer than 50 cells per well; well left out of scoring,inactive
Ramac (GeneID 67148),SID315472867,,1.45,1.3,fewer than 50 cells per well; well left out of scoring,inactive
Kir3dl2 (GeneID 245615),SID315479828,-0.35,1.46,1.31,enough cells to score,inactive
C8b (GeneID 110382),SID315476902,-1.03,1.47,1.45,enough cells to score,inactive
Cabp2 (GeneID 29866),SID315470723,,1.28,1.29,fewer than 50 cells per well; well left out of scoring,inactive
Hsd3b5 (GeneID 15496),SID315467317,1.04,1.71,1.56,enough cells to score,inactive
Liph (GeneID 239759),SID315479461,,1.44,1.35,fewer than 50 cells per well; well left out of scoring,inactive
Pgp (GeneID 67078),SID315472822,0.55,1.46,1.5,enough cells to score,inactive
Kremen2 (GeneID 73016),SID315474664,0.55,1.51,1.48,enough cells to score,inactive
Klk6 (GeneID 19144),SID315468725,-0.63,1.3,1.21,enough cells to score,inactive
Abhd10 (GeneID 213012),SID315477776,-0.14,1.48,1.59,enough cells to score,inactive
Ptk7 (GeneID 71461),SID315474241,1.31,1.81,1.61,enough cells to score,inactive
Alg13 (GeneID 67574),SID315473104,0.06,1.29,1.31,enough cells to score,inactive
Sepsecs (GeneID 211006),SID315477665,-1.02,1.29,1.53,enough cells to score,inactive
Cdc42ep1 (GeneID 104445),SID315476445,-0.72,1.4,1.29,enough cells to score,inactive
Ppt2 (GeneID 54397),SID315471225,-2,1.04,1.06,enough cells to score,active
Abca14 (GeneID 67928),SID315473315,,1.43,1.28,fewer than 50 cells per well; well left out of scoring,inactive
Ttll6 (GeneID 237930),SID315479375,,1.32,1.45,fewer than 50 cells per well; well left out of scoring,inactive
Mettl23 (GeneID 74319),SID315474936,0.03,1.46,1.54,enough cells to score,inactive
Reep4 (GeneID 72549),SID315474574,,1.15,1.22,fewer than 50 cells per well; well left out of scoring,inactive
Timp2 (GeneID 21858),SID315469727,0.14,1.5,1.57,enough cells to score,inactive
Nagk (GeneID 56174),SID315471378,-0.34,1.64,1.32,enough cells to score,inactive
Ifi205 (GeneID 226695),SID315478519,0.05,1.38,1.44,enough cells to score,inactive
Ccdc134 (GeneID 76457),SID315475316,,1.27,1.42,fewer than 50 cells per well; well left out of scoring,inactive
Myo19 (GeneID 66196),SID315472281,-0.41,1.73,1.52,enough cells to score,inactive
Ptk2 (GeneID 14083),SID315466617,0.36,1.96,1.42,enough cells to score,inactive
Zhx1 (GeneID 22770),SID315470147,-0.2,1.48,1.48,enough cells to score,inactive
Prpsap2 (GeneID 212627),SID315477752,,1.91,1.41,fewer than 50 cells per well; well left out of scoring,inactive
Tubb2b (GeneID 73710),SID315474768,0.74,1.5,1.39,enough cells to score,inactive
Msn (GeneID 17698),SID315467995,-2.18,1.19,1.08,enough cells to score,active
Flywch1 (GeneID 224613),SID315478348,0.87,1.52,1.53,enough cells to score,inactive
Trap1 (GeneID 68015),SID315473363,-0.73,1.5,1.51,enough cells to score,inactive
Slc38a2 (GeneID 67760),SID315473212,,1.23,1.28,fewer than 50 cells per well; well left out of scoring,inactive
Brinp3 (GeneID 215378),SID315477925,1.01,1.82,1.91,enough cells to score,inactive
Sh3bp1 (GeneID 20401),SID315469211,0.35,1.44,1.3,enough cells to score,inactive
Cybb (GeneID 13058),SID315466209,-0.38,1.43,1.33,enough cells to score,inactive
Fez1 (GeneID 235180),SID315479233,-0.16,1.37,1.41,enough cells to score,inactive
Glrx3 (GeneID 30926),SID315470762,-1.21,1.23,1.11,enough cells to score,inactive
Or5p5 (GeneID 257919),SID315479935,2.06,1.67,2.01,enough cells to score,inactive
Prss48 (GeneID 368202),SID315481733,,2.02,1.63,fewer than 50 cells per well; well left out of scoring,inactive
Tlr1 (GeneID 21897),SID315469743,1.61,2.14,1.44,enough cells to score,inactive
Igsf6 (GeneID 80719),SID315475710,,1.55,1.39,fewer than 50 cells per well; well left out of scoring,inactive
Phb2 (GeneID 12034),SID315465602,-0.47,1.71,1.53,enough cells to score,inactive
Vmn1r43 (GeneID 113847),SID315476975,,1.26,1.2,fewer than 50 cells per well; well left out of scoring,inactive
Trappc11 (GeneID 320714),SID315481379,-1.82,1.34,1.45,enough cells to score,active
BC005624 (GeneID 227707),SID315478590,0.64,1.64,1.99,enough cells to score,inactive
Mat2b (GeneID 108645),SID315476713,-0.08,1.71,1.53,enough cells to score,inactive
Med28 (GeneID 66999),SID315472768,,1.44,1.32,fewer than 50 cells per well; well left out of scoring,inactive
Pycr3 (GeneID 66194),SID315472279,0.23,1.56,1.38,enough cells to score,inactive
Aven (GeneID 74268),SID315474927,-0.1,1.67,1.53,enough cells to score,inactive
Napepld (GeneID 242864),SID315479655,0.49,1.64,1.8,enough cells to score,inactive
Mertk (GeneID 17289),SID315467905,0.35,1.66,1.48,enough cells to score,inactive
